This note sets out measurements from paper PMC7862700.

By UniProt entry, the sequences of proteins in these tests, tags left out. Where a name states a change or a piece, a line headed by the entry shows the natural chain unless it says otherwise.
UniProt Q9Y603: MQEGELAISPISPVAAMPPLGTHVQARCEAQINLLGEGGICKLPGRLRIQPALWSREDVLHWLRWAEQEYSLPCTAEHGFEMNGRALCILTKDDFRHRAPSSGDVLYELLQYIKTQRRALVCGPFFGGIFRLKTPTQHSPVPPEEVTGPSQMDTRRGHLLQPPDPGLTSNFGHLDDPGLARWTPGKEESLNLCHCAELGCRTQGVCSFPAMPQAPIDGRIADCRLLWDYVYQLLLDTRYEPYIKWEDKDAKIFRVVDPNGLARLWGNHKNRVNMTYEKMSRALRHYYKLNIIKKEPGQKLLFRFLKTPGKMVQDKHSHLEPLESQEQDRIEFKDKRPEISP
UniProt P41212: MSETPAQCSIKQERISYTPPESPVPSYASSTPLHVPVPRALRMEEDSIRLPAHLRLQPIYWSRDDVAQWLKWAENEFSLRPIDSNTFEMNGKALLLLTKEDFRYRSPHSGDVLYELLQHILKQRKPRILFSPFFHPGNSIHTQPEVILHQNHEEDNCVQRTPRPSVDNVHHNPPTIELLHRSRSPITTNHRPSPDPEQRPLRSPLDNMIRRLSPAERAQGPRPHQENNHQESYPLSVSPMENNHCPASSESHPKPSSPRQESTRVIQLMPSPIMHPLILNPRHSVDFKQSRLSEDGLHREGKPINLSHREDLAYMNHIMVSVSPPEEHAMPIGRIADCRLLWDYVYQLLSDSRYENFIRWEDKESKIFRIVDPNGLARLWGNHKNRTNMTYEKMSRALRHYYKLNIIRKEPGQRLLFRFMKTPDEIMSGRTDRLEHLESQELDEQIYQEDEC

Holding throughout (experiment): DAPPL (digital affinity profiling via proximity ligation, sequencing)
Settings in all cases: 10 mM Tris-HCl pH 7.5, 50 mM NaCl, 1 mM DTT, 4% glycerol, room temperature, 30 min; GST-TFs on glutathione beads, 16-mer random dsDNA library, 0.1% …; high values mean tight binding; double strand, one strand shown; scale: fold enrichment (6-mer frequency, TF over GST control)

One experiment addresses T1, ELF3 (UniProt P78545).
T1 sequence: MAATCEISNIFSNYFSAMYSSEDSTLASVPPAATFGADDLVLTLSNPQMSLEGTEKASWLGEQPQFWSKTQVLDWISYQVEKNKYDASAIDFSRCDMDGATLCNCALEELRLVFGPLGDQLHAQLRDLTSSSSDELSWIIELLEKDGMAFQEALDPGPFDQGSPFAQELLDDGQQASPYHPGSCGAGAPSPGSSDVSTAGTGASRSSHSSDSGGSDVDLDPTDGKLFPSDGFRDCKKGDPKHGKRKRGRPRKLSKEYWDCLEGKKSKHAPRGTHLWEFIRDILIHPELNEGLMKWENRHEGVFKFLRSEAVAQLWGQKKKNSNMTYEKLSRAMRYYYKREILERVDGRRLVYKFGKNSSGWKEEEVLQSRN

In a further experiment the target is ETV7 (UniProt Q9Y603).
The target of another experiment is ETV6 (UniProt P41212).

The list shows a part of the results, in another mix than the full data. At the low end of the ranking the order means little.

With AGACTA, the binding signal turned out to be 0.765 in the experiment with ELF3, 0.79 with ETV7 and 0.814 with ETV6.
As to CGGGAC, the binding signal in the experiment with ELF3 stood at 0.483; with ETV7, 0.564; in the experiment with ETV6 it was 0.547.
The matching figures for GTAGGG: 0.734, 0.874 and 0.738.
Regarding CAGCCG, the binding signal with ELF3 is 0.688; in the experiment with ETV7, 0.77; with ETV6 it was 0.659.
As to GCGGGC, the values for the binding signal with ELF3, with ETV7 and in the experiment with ETV6 were 0.755, 0.842 and 0.715, respectively.
The matching figures for TAGTCG: 0.518, 0.556 and 0.441.
Turning to GTCAAG, the binding signal was found to be 0.88 in the experiment with ELF3, 0.753 in the experiment with ETV7 and 0.835 with ETV6.
On to GCGTGT, for which the binding signal was found to be 0.656 with ELF3, 0.633 in the experiment with ETV7 and 0.532 with ETV6.
For CCCAGG, in that order: 0.79, 0.744 and 0.786.
Turning to TCGGGC, the binding signal came out at 0.478 in the experiment with ELF3, 0.511 with ETV7 and 0.457 with ETV6.
Regarding AGACGC, the binding signal in the experiment with ELF3 worked out at 0.654; in the experiment with ETV7 it was 0.752; with ETV6, 0.636.
For GGCAGT, in that order: 0.535, 0.6 and 0.539.
TCGGAG: the binding signal in the experiment with ELF3 was 0.181; in the experiment with ETV7, 0.259; with ETV6, 0.181.
Regarding GGAGTA, the binding signal in the experiment with ELF3 turned out to be 0.353; with ETV7, 0.4; with ETV6, 0.361.
In the case of GTCGCG, the binding signal stood at 0.673 with ELF3, 0.75 with ETV7 and 0.68 with ETV6.
Regarding GTGACG, the binding signal with ELF3 is 0.66; with ETV7, 0.672; in the experiment with ETV6, 0.705.
For GAAGGG, in that order: 0.796, 0.845 and 0.899.
Turning to TGGCGG, the binding signal with ELF3 was determined as 0.724; with ETV7, 0.694; in the experiment with ETV6, 0.79.
As for GCATGC, the binding signal in the experiment with ELF3 turned out to be 0.986; in the experiment with ETV7, 0.801; in the experiment with ETV6, 0.913.
Consider CGCGTG, for which the binding signal in the experiment with ELF3 was 0.699; in the experiment with ETV7, 0.809; in the experiment with ETV6, 0.644.
The matching figures for GACCCT: 0.952, 0.911 and 0.914.
Regarding GTGTGA, the values for the binding signal with ELF3, with ETV7 and in the experiment with ETV6 were 0.622, 0.596 and 0.531, respectively.
As for GGCCGC, the results for the binding signal with ELF3, with ETV7 and with ETV6 were 0.815, 0.739 and 0.785, respectively.
The matching figures for GACTAA: 0.885, 0.931 and 0.965.
The matching figures for TAGAGC: 0.774, 0.725 and 0.754.
In the case of TGAGAC, the figures for the binding signal in the experiment with ELF3, with ETV7 and with ETV6 were 0.539, 0.523 and 0.505, respectively.
For AGTGTG, in that order: 0.67, 0.744 and 0.693.
Turning to CTGAGA, the binding signal was 0.851 with ELF3, 0.778 with ETV7 and 0.697 with ETV6.
Consider GAGGAA, for which the binding signal in the experiment with ELF3 was determined as 0.902; in the experiment with ETV7 it was 0.723; in the experiment with ETV6 it was 0.932.
In the case of GTGCGA, the results for the binding signal with ELF3, with ETV7 and in the experiment with ETV6 were 0.779, 0.958 and 0.862, respectively.
For ACAGAC, the binding signal came to 0.9 with ELF3, 0.785 in the experiment with ETV7 and 0.833 with ETV6.
Regarding GACACA, the binding signal with ELF3 turned out to be 0.899; with ETV7 it was 0.934; in the experiment with ETV6, 0.896.
For GGGGGC, the values for the binding signal with ELF3, with ETV7 and with ETV6 were 0.699, 0.658 and 0.598, respectively.
Turning to CGGGGC, the binding signal in the experiment with ELF3 turned out to be 0.482; with ETV7, 0.663; with ETV6 it was 0.599.
Consider AGAGCA, for which the figures for the binding signal with ELF3, with ETV7 and in the experiment with ETV6 were 0.785, 0.732 and 0.75, respectively.
Consider GGAGCC, for which the binding signal with ELF3 was 0.371; in the experiment with ETV7, 0.384; with ETV6, 0.343.
With CAGCTG, the binding signal in the experiment with ELF3 turned out to be 0.812; with ETV7, 0.938; with ETV6, 0.802.
With GTTAGG, the binding signal with ELF3 is 0.796; in the experiment with ETV7, 0.834; in the experiment with ETV6, 0.795.
Turning to GTCGAT, the binding signal in the experiment with ELF3 was 0.694; with ETV7 it was 0.723; with ETV6 it was 0.67.
With GGAGAC, the values for the binding signal in the experiment with ELF3, in the experiment with ETV7 and with ETV6 were 0.142, 0.181 and 0.14, respectively.
For the sequence GGTGGA, the values for the binding signal in the experiment with ELF3, with ETV7 and in the experiment with ETV6 were 0.647, 0.661 and 0.618, respectively.
Turning to AGCGGA, the results for the binding signal in the experiment with ELF3, in the experiment with ETV7 and with ETV6 were 0.825, 0.796 and 0.902, respectively.
Regarding AGGAGT, the binding signal worked out at 0.393 with ELF3, 0.463 with ETV7 and 0.372 in the experiment with ETV6.
In the case of CCGGGC, the binding signal was determined as 0.792 with ELF3, 0.914 with ETV7 and 0.885 with ETV6.
The matching figures for GGGCCC: 0.882, 0.756 and 0.78.
Regarding GACCGT, the binding signal in the experiment with ELF3 worked out at 0.422; with ETV7 it was 0.453; with ETV6 it was 0.426.
For the sequence TCGGAT, the values for the binding signal with ELF3, in the experiment with ETV7 and in the experiment with ETV6 were 0.512, 0.468 and 0.487, respectively.
Regarding TAGACC, the binding signal in the experiment with ELF3 amounted to 0.84; with ETV7, 0.778; with ETV6, 0.808.
For CGGAGC, in that order: 0.399, 0.488 and 0.384.
As for AGAGGG, the binding signal with ELF3 stood at 0.756; with ETV7 it was 0.822; in the experiment with ETV6, 0.739.
For GATAGA, the binding signal in the experiment with ELF3 is 0.686; with ETV7 it was 0.894; with ETV6, 0.744.
Consider GCAGTG, for which the binding signal was found to be 0.588 with ELF3, 0.617 with ETV7 and 0.582 in the experiment with ETV6.
For CCATCG, the binding signal with ELF3 stood at 0.748; with ETV7 it was 0.848; in the experiment with ETV6 it was 0.782.
The matching figures for CATGTG: 0.733, 0.842 and 0.821.
Take CAGGTG: the binding signal stood at 0.533 with ELF3, 0.598 in the experiment with ETV7 and 0.565 with ETV6.
For GAGAGT, in that order: 0.313, 0.431 and 0.361.
The matching figures for AGGAGG: 0.204, 0.283 and 0.227.
Consider GAGAAG, for which the binding signal with ELF3 stood at 0.631; with ETV7 it was 0.821; with ETV6, 0.692.
On to GAGGTC, for which the results for the binding signal with ELF3, with ETV7 and in the experiment with ETV6 were 0.524, 0.588 and 0.575, respectively.
Regarding ATCGTA, the results for the binding signal with ELF3, in the experiment with ETV7 and with ETV6 were 0.872, 0.877 and 0.907, respectively.
Turning to AGGCGT, the binding signal with ELF3 came out at 0.523; in the experiment with ETV7 it was 0.509; with ETV6, 0.475.
AAACGT: the binding signal with ELF3 came out at 0.901; in the experiment with ETV7, 0.97; with ETV6, 0.957.
In the case of ACCAGA, the figures for the binding signal with ELF3, with ETV7 and with ETV6 were 0.98, 0.907 and 0.821, respectively.
For GGTGAA, in that order: 0.798, 0.83 and 0.727.
In the case of GCGGGT, the binding signal with ELF3 is 0.653; with ETV7, 0.684; with ETV6, 0.587.
For the sequence GGACAC, the binding signal with ELF3 stood at 0.766; with ETV7 it was 0.832; with ETV6, 0.769.
Take GGTGTG: the binding signal with ELF3 was determined as 0.69; with ETV7 it was 0.693; with ETV6, 0.729.
The matching figures for TGAGTC: 0.197, 0.245 and 0.199.
The matching figures for GTGCAG: 0.689, 0.76 and 0.695.
For GATCGT, the binding signal was 0.403 with ELF3, 0.428 with ETV7 and 0.453 with ETV6.
With AACCGT, the binding signal came out at 0.487 with ELF3, 0.502 with ETV7 and 0.525 with ETV6.
In the case of GCCATG, the binding signal was 0.823 with ELF3, 0.731 with ETV7 and 0.777 in the experiment with ETV6.
Regarding ACAGGC, the binding signal with ELF3 worked out at 0.74; with ETV7, 0.714; in the experiment with ETV6, 0.694.
For CGGCCA, the binding signal is 0.81 with ELF3, 0.75 with ETV7 and 0.742 with ETV6.
For the sequence GTGCGT, the binding signal is 0.724 with ELF3, 0.583 with ETV7 and 0.606 with ETV6.
For the sequence GGTTGG, the binding signal with ELF3 came to 0.664; in the experiment with ETV7, 0.756; with ETV6, 0.782.
In the case of AGTAAG, the binding signal with ELF3 was 0.834; in the experiment with ETV7 it was 0.795; with ETV6, 0.882.
On to ACGGGA, for which the binding signal in the experiment with ELF3 is 0.501; in the experiment with ETV7 it was 0.559; with ETV6, 0.514.
With GTGTCG, the binding signal with ELF3 is 0.595; in the experiment with ETV7, 0.683; with ETV6 it was 0.588.
As for CACGAG, the binding signal with ELF3 stood at 0.784; in the experiment with ETV7, 0.872; with ETV6, 0.865.
As to ACCGAG, the binding signal was 0.835 with ELF3, 0.787 in the experiment with ETV7 and 0.725 with ETV6.
Consider CGAGGA, for which the binding signal with ELF3 was found to be 0.54; with ETV7, 0.606; with ETV6 it was 0.705.
Take GGACGG: the binding signal with ELF3 stood at 0.452; in the experiment with ETV7 it was 0.534; in the experiment with ETV6 it was 0.512.
As to ACGTCG, the figures for the binding signal in the experiment with ELF3, with ETV7 and in the experiment with ETV6 were 0.616, 0.631 and 0.595, respectively.
